This passage reports binding results from patent US20230272413A1 (UNITED STATES OF AMERICA AS REPRESENTED BY THE SECRETARY OF …, published 2023).

For assay [1], the target named is TuYV ^NRTD (Turnip yellows virus) (UniProt P09514). The assay can be described thus: SEC-MALS, homodimer.
Assay [2] has the same target. The assay can be described thus: X-ray crystal structure, homodimer.

Results are given in words; binding and its absence hold for the method and conditions named. Some entries that bind do so weakly or less than the wild type.

B1: TuYV ^NRTD (protein)
chain: KKYRFIVYTGVPVTRIMAQSTDDAISLYDMPSQRFRYIEDENMNWTNLDSRWYSQNSLKAIPMIIVPVPQGEWTVEISMEGYQPTSSTTDPNKDKQDGLIAYNDDLSEGWNVGIYNNVEITNNKADNTLKYGHPDMELNGCHFNQGQCLERDGDLTCHIKTTGDNASFFVVGPAVQKQSKYNYAVSYGAWTDRMMEIGMIAIALDEQGSSGSVKTERPKRVGHSMAVSTWETIKLP
In the case of B1, the binding result in assay [1] and in assay [2] was “binds” each time.
